# The supplement of paper PMC6411743
# Chains of the proteins cited; added tags and fusions are not shown. Lines headed by an entry give the natural chain unless they say otherwise; changes in a name come on top.
# UniProt Q9Y5P6: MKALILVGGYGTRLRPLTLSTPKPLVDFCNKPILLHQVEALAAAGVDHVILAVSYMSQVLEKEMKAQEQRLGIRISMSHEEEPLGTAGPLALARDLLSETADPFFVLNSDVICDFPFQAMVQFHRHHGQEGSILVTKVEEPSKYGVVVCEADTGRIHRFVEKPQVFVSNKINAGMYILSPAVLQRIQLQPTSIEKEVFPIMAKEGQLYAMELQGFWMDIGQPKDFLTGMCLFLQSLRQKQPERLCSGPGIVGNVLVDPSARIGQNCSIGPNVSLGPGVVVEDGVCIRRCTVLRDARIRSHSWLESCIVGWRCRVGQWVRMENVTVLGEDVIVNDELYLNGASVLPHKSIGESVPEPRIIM
# UniProt Q9Y5Z7: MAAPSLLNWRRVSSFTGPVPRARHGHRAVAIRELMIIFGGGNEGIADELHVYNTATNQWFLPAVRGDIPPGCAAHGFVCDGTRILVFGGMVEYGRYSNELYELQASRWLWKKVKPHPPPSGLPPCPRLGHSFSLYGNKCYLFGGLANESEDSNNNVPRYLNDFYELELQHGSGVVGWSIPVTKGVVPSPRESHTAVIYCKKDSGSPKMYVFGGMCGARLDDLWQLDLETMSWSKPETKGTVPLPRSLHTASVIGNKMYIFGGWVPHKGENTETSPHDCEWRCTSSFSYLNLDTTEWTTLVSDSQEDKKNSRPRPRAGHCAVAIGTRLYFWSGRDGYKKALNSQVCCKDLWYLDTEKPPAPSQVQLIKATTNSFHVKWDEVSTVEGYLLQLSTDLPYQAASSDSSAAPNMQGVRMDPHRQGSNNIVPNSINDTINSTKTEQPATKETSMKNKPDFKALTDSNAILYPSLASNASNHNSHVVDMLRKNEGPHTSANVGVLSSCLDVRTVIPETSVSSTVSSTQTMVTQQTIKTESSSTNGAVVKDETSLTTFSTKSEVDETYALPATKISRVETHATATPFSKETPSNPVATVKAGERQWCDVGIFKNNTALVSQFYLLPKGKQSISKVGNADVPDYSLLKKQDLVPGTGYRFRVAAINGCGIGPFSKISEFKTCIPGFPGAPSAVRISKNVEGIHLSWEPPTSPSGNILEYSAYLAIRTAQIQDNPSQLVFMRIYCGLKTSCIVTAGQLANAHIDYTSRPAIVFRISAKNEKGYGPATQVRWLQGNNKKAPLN
# UniProt Q9Y2X9: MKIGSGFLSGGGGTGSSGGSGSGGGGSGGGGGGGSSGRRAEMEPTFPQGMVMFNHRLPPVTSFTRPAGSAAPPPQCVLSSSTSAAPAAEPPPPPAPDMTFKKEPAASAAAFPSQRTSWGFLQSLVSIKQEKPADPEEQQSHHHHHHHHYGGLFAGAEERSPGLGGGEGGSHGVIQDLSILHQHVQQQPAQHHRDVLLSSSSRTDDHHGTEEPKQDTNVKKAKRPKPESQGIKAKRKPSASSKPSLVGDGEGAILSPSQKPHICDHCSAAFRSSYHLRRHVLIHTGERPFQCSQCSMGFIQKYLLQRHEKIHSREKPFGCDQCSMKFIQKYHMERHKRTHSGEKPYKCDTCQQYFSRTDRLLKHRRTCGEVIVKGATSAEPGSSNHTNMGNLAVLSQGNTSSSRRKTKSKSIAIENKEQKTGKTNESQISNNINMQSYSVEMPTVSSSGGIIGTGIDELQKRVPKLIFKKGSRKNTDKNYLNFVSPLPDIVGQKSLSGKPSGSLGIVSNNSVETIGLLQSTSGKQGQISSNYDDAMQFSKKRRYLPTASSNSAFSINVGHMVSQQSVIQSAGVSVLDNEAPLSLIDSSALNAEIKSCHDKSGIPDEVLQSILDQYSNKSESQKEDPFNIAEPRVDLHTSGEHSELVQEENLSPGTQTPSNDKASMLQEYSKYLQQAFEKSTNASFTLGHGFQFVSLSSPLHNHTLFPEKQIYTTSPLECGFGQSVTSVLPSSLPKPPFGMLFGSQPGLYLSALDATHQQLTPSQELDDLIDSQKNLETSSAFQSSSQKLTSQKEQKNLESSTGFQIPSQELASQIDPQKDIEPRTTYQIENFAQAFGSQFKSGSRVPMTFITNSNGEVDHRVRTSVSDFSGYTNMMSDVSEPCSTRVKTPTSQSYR
# UniProt Q9Y5B6: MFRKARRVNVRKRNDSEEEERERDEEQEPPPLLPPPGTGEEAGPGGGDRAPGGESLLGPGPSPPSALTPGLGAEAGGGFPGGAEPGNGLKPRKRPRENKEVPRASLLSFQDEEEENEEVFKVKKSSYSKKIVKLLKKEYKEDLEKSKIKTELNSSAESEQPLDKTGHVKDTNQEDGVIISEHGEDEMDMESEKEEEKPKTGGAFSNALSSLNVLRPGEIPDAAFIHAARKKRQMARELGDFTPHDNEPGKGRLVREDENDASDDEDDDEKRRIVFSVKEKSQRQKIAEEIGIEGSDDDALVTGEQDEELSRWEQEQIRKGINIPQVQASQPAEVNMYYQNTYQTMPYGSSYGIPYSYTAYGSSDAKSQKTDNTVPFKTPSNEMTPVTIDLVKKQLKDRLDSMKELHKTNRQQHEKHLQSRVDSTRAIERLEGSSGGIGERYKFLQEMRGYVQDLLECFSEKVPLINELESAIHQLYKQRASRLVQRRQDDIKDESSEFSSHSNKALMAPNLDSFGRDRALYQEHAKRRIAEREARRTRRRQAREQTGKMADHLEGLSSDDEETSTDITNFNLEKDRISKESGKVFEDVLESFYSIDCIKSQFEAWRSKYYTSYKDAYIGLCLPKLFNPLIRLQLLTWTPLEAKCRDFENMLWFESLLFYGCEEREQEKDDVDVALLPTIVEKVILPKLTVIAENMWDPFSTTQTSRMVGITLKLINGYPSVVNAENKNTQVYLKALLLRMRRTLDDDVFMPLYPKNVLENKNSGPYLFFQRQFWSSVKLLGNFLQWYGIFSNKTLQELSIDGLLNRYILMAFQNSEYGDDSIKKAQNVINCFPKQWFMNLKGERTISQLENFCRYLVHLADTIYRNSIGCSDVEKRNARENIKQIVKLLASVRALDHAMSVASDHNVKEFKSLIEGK
# UniProt Q9Y678: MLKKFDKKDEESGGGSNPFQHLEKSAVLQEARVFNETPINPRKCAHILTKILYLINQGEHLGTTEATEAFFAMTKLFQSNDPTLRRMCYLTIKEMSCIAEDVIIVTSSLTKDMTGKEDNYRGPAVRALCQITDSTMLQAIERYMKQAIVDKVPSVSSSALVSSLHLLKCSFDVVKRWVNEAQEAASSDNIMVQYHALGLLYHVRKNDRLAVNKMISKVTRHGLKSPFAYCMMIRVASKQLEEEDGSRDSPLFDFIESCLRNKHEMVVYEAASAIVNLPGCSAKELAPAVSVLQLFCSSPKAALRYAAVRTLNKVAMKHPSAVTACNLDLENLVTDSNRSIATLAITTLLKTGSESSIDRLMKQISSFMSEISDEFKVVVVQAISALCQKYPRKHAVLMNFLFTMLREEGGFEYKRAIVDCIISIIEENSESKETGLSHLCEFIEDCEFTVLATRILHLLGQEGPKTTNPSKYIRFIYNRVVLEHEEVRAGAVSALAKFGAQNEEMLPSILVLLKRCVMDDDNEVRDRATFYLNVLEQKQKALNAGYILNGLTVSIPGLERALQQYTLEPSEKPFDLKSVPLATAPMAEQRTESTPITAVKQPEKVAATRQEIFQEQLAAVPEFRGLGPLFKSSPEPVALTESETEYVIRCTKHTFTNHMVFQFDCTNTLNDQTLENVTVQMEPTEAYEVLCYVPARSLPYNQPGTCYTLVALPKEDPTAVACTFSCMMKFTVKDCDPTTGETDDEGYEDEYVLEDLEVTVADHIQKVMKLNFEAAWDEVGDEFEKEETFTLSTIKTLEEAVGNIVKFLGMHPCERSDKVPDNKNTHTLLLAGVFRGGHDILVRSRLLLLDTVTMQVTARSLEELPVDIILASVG
# UniProt Q9Y4L5, whole entry: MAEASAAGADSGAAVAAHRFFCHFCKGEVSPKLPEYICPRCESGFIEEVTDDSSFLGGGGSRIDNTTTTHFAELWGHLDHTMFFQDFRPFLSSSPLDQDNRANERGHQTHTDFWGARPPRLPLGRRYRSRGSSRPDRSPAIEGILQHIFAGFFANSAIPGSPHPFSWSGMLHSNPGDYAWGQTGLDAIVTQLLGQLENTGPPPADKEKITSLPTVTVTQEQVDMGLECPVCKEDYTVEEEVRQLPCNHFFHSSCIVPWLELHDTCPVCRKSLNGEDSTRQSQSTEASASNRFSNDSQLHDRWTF
# UniProt Q9Y6R1: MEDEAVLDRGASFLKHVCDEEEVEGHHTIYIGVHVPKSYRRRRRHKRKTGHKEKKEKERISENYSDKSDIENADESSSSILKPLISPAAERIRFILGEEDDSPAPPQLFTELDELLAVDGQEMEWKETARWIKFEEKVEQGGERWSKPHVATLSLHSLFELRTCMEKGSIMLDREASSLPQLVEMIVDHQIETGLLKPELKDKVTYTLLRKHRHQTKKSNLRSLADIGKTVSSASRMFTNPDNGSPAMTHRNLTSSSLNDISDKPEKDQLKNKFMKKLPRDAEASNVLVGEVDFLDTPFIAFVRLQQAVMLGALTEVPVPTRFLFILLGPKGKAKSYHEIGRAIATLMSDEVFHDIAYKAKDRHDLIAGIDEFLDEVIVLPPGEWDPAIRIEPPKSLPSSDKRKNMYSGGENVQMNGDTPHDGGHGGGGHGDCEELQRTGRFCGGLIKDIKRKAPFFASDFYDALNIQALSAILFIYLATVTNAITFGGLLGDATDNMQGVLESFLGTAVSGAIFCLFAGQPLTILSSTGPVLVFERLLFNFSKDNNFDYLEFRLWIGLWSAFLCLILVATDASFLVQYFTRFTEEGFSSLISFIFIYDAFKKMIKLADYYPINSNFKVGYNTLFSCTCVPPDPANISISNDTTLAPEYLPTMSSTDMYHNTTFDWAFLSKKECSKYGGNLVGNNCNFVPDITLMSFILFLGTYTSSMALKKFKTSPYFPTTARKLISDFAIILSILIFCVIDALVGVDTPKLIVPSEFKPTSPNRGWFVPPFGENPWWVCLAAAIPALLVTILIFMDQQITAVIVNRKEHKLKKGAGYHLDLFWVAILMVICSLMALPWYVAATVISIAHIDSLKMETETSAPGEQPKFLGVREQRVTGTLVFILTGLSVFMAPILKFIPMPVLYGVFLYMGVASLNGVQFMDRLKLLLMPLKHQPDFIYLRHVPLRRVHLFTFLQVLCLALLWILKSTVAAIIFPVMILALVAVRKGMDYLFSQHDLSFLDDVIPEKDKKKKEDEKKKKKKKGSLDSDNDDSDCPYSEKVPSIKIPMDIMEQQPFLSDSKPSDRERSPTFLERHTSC
# UniProt Q9Y3C8: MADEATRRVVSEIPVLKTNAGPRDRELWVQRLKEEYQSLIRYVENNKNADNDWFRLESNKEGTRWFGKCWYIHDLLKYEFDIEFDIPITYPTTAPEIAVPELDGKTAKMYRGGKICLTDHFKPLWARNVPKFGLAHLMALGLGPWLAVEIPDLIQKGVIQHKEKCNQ
# UniProt Q9Y2Q5, whole entry: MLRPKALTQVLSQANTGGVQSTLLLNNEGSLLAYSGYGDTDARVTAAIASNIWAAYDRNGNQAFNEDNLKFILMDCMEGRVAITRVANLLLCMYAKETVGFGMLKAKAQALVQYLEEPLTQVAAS
# UniProt Q9Y3C1: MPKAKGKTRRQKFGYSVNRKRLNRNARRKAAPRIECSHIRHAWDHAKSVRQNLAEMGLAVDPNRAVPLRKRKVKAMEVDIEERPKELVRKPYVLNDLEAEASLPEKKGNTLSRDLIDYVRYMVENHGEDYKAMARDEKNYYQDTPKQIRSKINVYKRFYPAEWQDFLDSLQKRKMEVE
# UniProt Q9Y487, whole entry: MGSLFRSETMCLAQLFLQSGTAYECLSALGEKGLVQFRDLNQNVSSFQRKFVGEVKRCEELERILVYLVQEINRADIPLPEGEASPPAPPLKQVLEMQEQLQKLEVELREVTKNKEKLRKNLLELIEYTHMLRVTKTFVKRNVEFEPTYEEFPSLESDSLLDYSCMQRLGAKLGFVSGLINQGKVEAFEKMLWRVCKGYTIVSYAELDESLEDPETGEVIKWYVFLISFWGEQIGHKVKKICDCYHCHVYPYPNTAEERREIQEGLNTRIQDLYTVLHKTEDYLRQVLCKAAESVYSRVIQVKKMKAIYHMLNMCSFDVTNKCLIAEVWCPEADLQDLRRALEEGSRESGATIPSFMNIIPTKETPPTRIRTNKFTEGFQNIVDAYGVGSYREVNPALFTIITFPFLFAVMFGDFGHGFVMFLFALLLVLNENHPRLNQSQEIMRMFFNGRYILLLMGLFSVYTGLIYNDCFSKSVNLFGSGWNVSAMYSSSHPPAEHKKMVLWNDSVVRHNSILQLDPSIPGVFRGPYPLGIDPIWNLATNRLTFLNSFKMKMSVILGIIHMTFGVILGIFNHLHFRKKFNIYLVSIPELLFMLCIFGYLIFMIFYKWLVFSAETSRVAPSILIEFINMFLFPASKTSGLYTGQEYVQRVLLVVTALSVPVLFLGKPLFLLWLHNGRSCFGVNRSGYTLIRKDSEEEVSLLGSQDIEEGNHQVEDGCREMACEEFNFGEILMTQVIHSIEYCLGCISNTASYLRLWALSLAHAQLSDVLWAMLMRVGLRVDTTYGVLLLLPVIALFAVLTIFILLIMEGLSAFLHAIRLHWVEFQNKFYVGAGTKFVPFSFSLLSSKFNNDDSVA
# ± gives the standard deviation of the averaged measurements. The entries are a selection whose mix differs from that of the whole data set.
# Compound: Nc1ncnc2c1ncn2[C@@H]1O[C@H](COP(=O)(O)OP(=O)(O)OP(=O)(O)O)[C@@H](O)[C@H]1O [adenosine triphosphate]
# Assay: NP40-soluble protein abundance relative to vehicle (solubility fold change) (ratio); higher = more soluble protein in presence of ATP
# Procedure, shortened: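 Crude Jurkat lysate, prepared by Dounce homogenisation, was exposed to eight concentrations from 0.1 to 10 mM for 10 min at room temperature and then 3 min at 37 °C. Solubilisation used 0.8% NP40 with benzonase for 60 min at 4 °C, followed by ultracentrifugation and TMT labelling of the supernatant for LC-MS/MS. After vsn normalisation of intensities, each value is the fold change against the detergent-processed vehicle within each replicate, across three independent experiments.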
Target,NP40-soluble protein abundance (concentration: 1mM),NP40-soluble protein abundance (concentration: 2mM),NP40-soluble protein abundance (concentration: 4mM),NP40-soluble protein abundance (concentration: 6mM),NP40-soluble protein abundance (concentration: 8mM),NP40-soluble protein abundance (concentration: 10mM)
GMPPB (UniProt Q9Y5P6),1 ± 0.07,0.969 ± 0.062,0.987 ± 0.075,0.953 ± 0.093,0.978 ± 0.039,0.945 ± 0.057
UniProt Q9Y5L4 and related entries,0.896 ± 0.12,0.952 ± 0.082,0.986 ± 0.13,1.03 ± 0.12,0.878 ± 0.035,0.879 ± 0.13
HCFC2 (UniProt Q9Y5Z7),0.945 ± 0.089,1.01 ± 0.16,1.07 ± 0.058,1.16 ± 0.054,1.06 ± 0.087,1.12 ± 0.12
UniProt Q9Y2X9 and related entries,1.01 ± 0.043,0.975 ± 0.07,0.987 ± 0.1,1.06 ± 0.11,0.971 ± 0.09,0.98 ± 0.051
SLC30A1 (UniProt Q9Y6M5),1.09 ± 0.097,0.922 ± 0.062,1.12 ± 0.18,1.11 ± 0.021,1.032 ± 0.0064,1.1 ± 0.12
UniProt Q9Y3C4 and related entries,0.961 ± 0.059,0.984 ± 0.029,0.947 ± 0.041,0.945 ± 0.045,0.981 ± 0.032,0.926 ± 0.045
UniProt Q9Y5B6 and related entries,1.04 ± 0.058,1.095 ± 0.0086,1.2 ± 0.028,1.2 ± 0.025,1.16 ± 0.088,1.35 ± 0.039
R4GMR5 and related entries (UniProt P48556),0.896 ± 0.051,0.864 ± 0.02,0.828 ± 0.027,0.791 ± 0.035,0.864 ± 0.064,0.825 ± 0.023
UniProt Q9Y678,1.01 ± 0.068,1.01 ± 0.041,1 ± 0.041,0.958 ± 0.057,0.991 ± 0.033,1.01 ± 0.043
RNF114 (UniProt Q9Y508),1.06 ± 0.043,0.998 ± 0.057,0.966 ± 0.046,0.998 ± 0.065,0.989 ± 0.054,0.95 ± 0.036
UniProt Q9Y2A7 and related entries,1.01 ± 0.17,0.971 ± 0.12,0.971 ± 0.17,0.931 ± 0.12,0.99 ± 0.12,0.923 ± 0.097
UniProt Q9Y608 and related entries,1.01 ± 0.044,1.02 ± 0.015,1 ± 0.013,1.05 ± 0.072,1.056 ± 0.0069,1.01 ± 0.069
RNF115 (UniProt Q9Y4L5),0.99 ± 0.11,0.991 ± 0.14,1 ± 0.065,1.01 ± 0.057,0.972 ± 0.17,1.035 ± 0.0042
SNX5 (UniProt Q9Y5X3),0.969 ± 0.023,0.9777 ± 0.0064,0.944 ± 0.012,0.972 ± 0.024,0.936 ± 0.021,0.938 ± 0.032
TLN2 (UniProt Q9Y4G6),0.987 ± 0.04,0.99 ± 0.039,1.01 ± 0.056,0.993 ± 0.024,0.9302 ± 0.0053,0.973 ± 0.057
UniProt Q9Y4E8 and related entries,0.974 ± 0.029,0.971 ± 0.044,0.949 ± 0.049,0.972 ± 0.032,0.954 ± 0.024,0.957 ± 0.022
SAR1B (UniProt Q9Y6B6),1 ± 0.082,1.01 ± 0.021,0.967 ± 0.045,0.989 ± 0.16,1.03 ± 0.07,0.96999 ± 0.00063
UniProt Q9Y320 and related entries,0.976 ± 0.019,0.968 ± 0.026,0.951 ± 0.03,0.961 ± 0.053,0.952 ± 0.029,0.942 ± 0.034

Target,NP40-soluble protein abundance (concentration: 1mM),NP40-soluble protein abundance (concentration: 2mM),NP40-soluble protein abundance (concentration: 4mM),NP40-soluble protein abundance (concentration: 6mM),NP40-soluble protein abundance (concentration: 8mM),NP40-soluble protein abundance (concentration: 10mM)
INPP5F (UniProt Q9Y2H2),1 ± 0.065,0.995 ± 0.05,1.05 ± 0.043,1.03 ± 0.063,1.03 ± 0.048,1 ± 0.035
MYH15 (UniProt Q9Y2K3),1.11 ± 0.19,1.03 ± 0.13,1.08 ± 0.24,1.08 ± 0.31,1.18 ± 0.43,1.1 ± 0.25
UniProt Q9Y4E6 and related entries,1.04 ± 0.017,1.02 ± 0.018,1.01 ± 0.023,1.01 ± 0.036,1.05 ± 0.021,1.01 ± 0.013
UniProt Q9Y3D5 and related entries,1.01 ± 0.093,0.861 ± 0.14,0.869 ± 0.087,0.854 ± 0.24,0.828 ± 0.15,0.767 ± 0.15
UniProt Q9Y5U2 and related entries,0.952 ± 0.17,0.937 ± 0.15,0.919 ± 0.12,0.981 ± 0.18,0.917 ± 0.18,0.943 ± 0.16
UniProt Q9Y6R1 and related entries,0.685 ± 0.15,0.61 ± 0.13,0.699 ± 0.11,0.781 ± 0.11,0.749 ± 0.085,0.781 ± 0.11
UniProt Q9Y2S0 and related entries,1.07 ± 0.11,1.06 ± 0.093,1.09 ± 0.06,1.15 ± 0.12,1.06 ± 0.055,1.06 ± 0.13
BOLA1 (UniProt Q9Y3E2),0.881 ± 0.078,0.965 ± 0.078,0.956 ± 0.035,0.989 ± 0.12,0.918 ± 0.064,0.904 ± 0.076
UFC1 (UniProt Q9Y3C8),0.917 ± 0.12,0.886 ± 0.041,0.909 ± 0.095,0.901 ± 0.05,0.924 ± 0.013,0.808 ± 0.091
UniProt Q9Y2Q5 and related entries,0.883 ± 0.068,0.967 ± 0.053,0.928 ± 0.026,0.833 ± 0.08,0.856 ± 0.055,0.859 ± 0.088
UniProt Q9Y5W9 and related entries,0.958 ± 0.14,1.03 ± 0.079,0.973 ± 0.14,0.949 ± 0.12,0.892 ± 0.082,0.966 ± 0.095
UniProt Q9Y3D8 and related entries,1.01 ± 0.081,1 ± 0.013,0.975 ± 0.12,1.06 ± 0.12,0.947 ± 0.045,0.969 ± 0.081
UniProt Q9Y3C1 and related entries,1 ± 0.053,1.01 ± 0.022,0.868 ± 0.043,0.852 ± 0.071,0.714 ± 0.21,0.875 ± 0.24
ATP6V0A2 (UniProt Q9Y487),1 ± 0.038,1.01 ± 0.058,0.981 ± 0.011,0.979 ± 0.093,0.992 ± 0.011,0.96 ± 0.038
UniProt Q9Y6M9 and related entries,1.02 ± 0.09,0.968 ± 0.041,0.963 ± 0.044,0.984 ± 0.12,0.929 ± 0.034,0.861 ± 0.15
SUPT16H (UniProt Q9Y5B9),1.06 ± 0.025,1.13 ± 0.038,1.17 ± 0.03,1.23 ± 0.028,1.28 ± 0.02,1.45 ± 0.026
UniProt Q9Y6P5-2,1.13 ± 0.17,0.991 ± 0.15,1.03 ± 0.082,0.978 ± 0.082,1.07 ± 0.017,1.09 ± 0.019

# A second format for part of the listing above:
Target	NP40-soluble protein abundance (concentration: 1mM)	NP40-soluble protein abundance (concentration: 2mM)	NP40-soluble protein abundance (concentration: 4mM)	NP40-soluble protein abundance (concentration: 6mM)	NP40-soluble protein abundance (concentration: 8mM)	NP40-soluble protein abundance (concentration: 10mM)
BOLA1 (UniProt Q9Y3E2)	0.881 ± 0.078	0.965 ± 0.078	0.956 ± 0.035	0.989 ± 0.12	0.918 ± 0.064	0.904 ± 0.076
UFC1 (UniProt Q9Y3C8)	0.917 ± 0.12	0.886 ± 0.041	0.909 ± 0.095	0.901 ± 0.05	0.924 ± 0.013	0.808 ± 0.091
UniProt Q9Y2Q5 and related entries	0.883 ± 0.068	0.967 ± 0.053	0.928 ± 0.026	0.833 ± 0.08	0.856 ± 0.055	0.859 ± 0.088
UniProt Q9Y5W9 and related entries	0.958 ± 0.14	1.03 ± 0.079	0.973 ± 0.14	0.949 ± 0.12	0.892 ± 0.082	0.966 ± 0.095
UniProt Q9Y3D8 and related entries	1.01 ± 0.081	1 ± 0.013	0.975 ± 0.12	1.06 ± 0.12	0.947 ± 0.045	0.969 ± 0.081
UniProt Q9Y3C1 and related entries	1 ± 0.053	1.01 ± 0.022	0.868 ± 0.043	0.852 ± 0.071	0.714 ± 0.21	0.875 ± 0.24
ATP6V0A2 (UniProt Q9Y487)	1 ± 0.038	1.01 ± 0.058	0.981 ± 0.011	0.979 ± 0.093	0.992 ± 0.011	0.96 ± 0.038
UniProt Q9Y6M9 and related entries	1.02 ± 0.09	0.968 ± 0.041	0.963 ± 0.044	0.984 ± 0.12	0.929 ± 0.034	0.861 ± 0.15
SUPT16H (UniProt Q9Y5B9)	1.06 ± 0.025	1.13 ± 0.038	1.17 ± 0.03	1.23 ± 0.028	1.28 ± 0.02	1.45 ± 0.026
UniProt Q9Y6P5-2	1.13 ± 0.17	0.991 ± 0.15	1.03 ± 0.082	0.978 ± 0.082	1.07 ± 0.017	1.09 ± 0.019
